Paper PMC10403363, “Mechanism of ribosome-associated mRNA degradation during tubulin autoregulation” (Molecular Cell, 2023)
Where a chain is given by its changes, count along the chain named. No constants are given. Whether binding was seen depends on the method and setting. Where a sequence is shown, tags or fusion partners need not be part of it.

T1: human 6xHis-TEV-Twin-Strep-TTC5-K97A (human) (UniProt Q8N0Z6)
T1 sequence: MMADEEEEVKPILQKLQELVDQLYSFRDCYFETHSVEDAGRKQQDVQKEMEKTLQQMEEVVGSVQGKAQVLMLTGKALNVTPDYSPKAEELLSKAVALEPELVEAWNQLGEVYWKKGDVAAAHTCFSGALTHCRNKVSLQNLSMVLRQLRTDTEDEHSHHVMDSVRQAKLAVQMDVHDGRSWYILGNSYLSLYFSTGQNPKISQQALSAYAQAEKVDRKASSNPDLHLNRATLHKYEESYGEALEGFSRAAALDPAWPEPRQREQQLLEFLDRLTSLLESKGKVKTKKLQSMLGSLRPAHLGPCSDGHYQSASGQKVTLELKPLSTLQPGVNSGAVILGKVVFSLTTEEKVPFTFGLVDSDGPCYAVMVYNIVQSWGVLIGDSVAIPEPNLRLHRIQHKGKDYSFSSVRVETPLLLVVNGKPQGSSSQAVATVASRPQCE

T2: human 6xHis-TEV-Twin-Strep-TTC5 (human) (UniProt Q8N0Z6)
T2 sequence: T1 sequence with A97K

B1: human SCAPER-FLAG (recombinant, purified) (protein, UniProt Q9BY12 1-1400)
chain: MMASFQRSNSHDKVRRIVAEEGRTARNLIAWSVPLESKDDDGKPKCQTGGKSKRTIQGTHKTTKQSTAVDCKITSSTTGDKHFDKSPTKTRHPRKIDLRARYWAFLFDNLRRAVDEIYVTCESDQSVVECKEVLMMLDNYVRDFKALIDWIQLQEKLEKTDAQSRPTSLAWEVKKMSPGRHVIPSPSTDRINVTSNARRSLNFGGSTGTVPAPRLAPTGVSWADKVKAHHTGSTASSEITPAQSCPPMTVQKASRKNERKDAEGWETVQRGRPIRSRSTAVMPKVSLATEATRSKDDSDKENVCLLPDESIQKGQFVGDGTSNTIESHPKDSLHSCDHPLAEKTQFTVSTLDDVKNSGSIRDNYVRTSEISAVHIDTECVSVMLQAGTPPLQVNEEKFPAEKARIENEMDPSDISNSMAEVLAKKEELADRLEKANEEAIASAIAEEEQLTREIEAEENNDINIETDNDSDFSASMGSGSVSFCGMSMDWNDVLADYEARESWRQNTSWGDIVEEEPARPPGHGIHMHEKLSSPSRKRTIAESKKKHEEKQMKAQQLREKLREEKTLKLQKLLEREKDVRKWKEELLDQRRRMMEEKLLHAEFKREVQLQAIVKKAQEEEAKVNEIAFINTLEAQNKRHDVLSKLKEYEQRLNELQEERQRRQEEKQARDEAVQERKRALEAERQARVEELLMKRKEQEARIEQQRQEKEKAREDAARERARDREERLAALTAAQQEAMEELQKKIQLKHDESIRRHMEQIEQRKEKAAELSSGRHANTDYAPKLTPYERKKQCSLCNVLISSEVYLFSHVKGRKHQQAVRENTSIQGRELSDEEVEHLSLKKYIIDIVVESTAPAEALKDGEERQKNKKKAKKIKARMNFRAKEYESLMETKNSGSDSPYKAKLQRLAKDLLKQVQVQDSGSWANNKVSALDRTLGEITRILEKENVADQIAFQAAGGLTALEHILQAVVPATNVNTVLRIPPKSLCNAINVYNLTCNNCSENCSDVLFSNKITFLMDLLIHQLTVYVPDENNTILGRNTNKQVFEGLTTGLLKVSAVVLGCLIANRPDGNCQPATPKIPTQEMKNKPSQGDPFNNRVQDLISYVVNMGLIDKLCACFLSVQGPVDENPKMAIFLQHAAGLLHAMCTLCFAVTGRSYSIFDNNRQDPTGLTAALQATDLAGVLHMLYCVLFHGTILDPSTASPKENYTQNTIQVAIQSLRFFNSFAALHLPAFQSIVGAEGLSLAFRHMASSLLGHCSQVSCESLLHEVIVCVGYFTVNHPDNQVIVQSGRHPTVLQKLCQLPFQYFSDPRLIKVLFPSLIAACYNNHQNKIILEQEMSCVLLATFIQDLAQTPGQAENQPYQPKGKCLGSQDYLELANRFPQQAWEEARQFFLKKEKK
B2: human FLAG-SCAPER (recombinant, purified) (protein, UniProt Q9BY12 1-1400)
chain: B1 chain

How the values were obtained:
[1] = molecular target: T1, human 6xHis-TEV-Twin-Strep-TTC5-K97A (human); assay: pull-down; 100 nM SCAPER-FLAG and 150 nM Strep-TTC5 in IP buffer (50 mM HEPES pH 7.4, 100 mM KAc, 5 mM MgAc2, 1 mM DTT, 0.01% digitonin), 4°C; Streptactin magnetic beads; Coomassie; both purified
[2] = molecular target: T1, human 6xHis-TEV-Twin-Strep-TTC5-K97A (human); assay: pull-down; recombinant FLAG-SCAPER and Strep-TTC5 (100-250 nM) present during translation of the 64-residue TUBB nascent chain in rabbit reticulocyte lysate; Streptactin Sepharose pull-down via TTC5, biotin elution; western blot; both purified
[3] = molecular target: T2, human 6xHis-TEV-Twin-Strep-TTC5 (human); assay: condition: only RNCs with the MHQV mutant β-tubulin instead of wild-type β-tubulin; pull-down; as a4, but RNCs with the MHQV mutant β-tubulin; both purified
[4] = molecular target: T2, human 6xHis-TEV-Twin-Strep-TTC5 (human); assay: pull-down; as a4, but reactions lacking β-tubulin RNCs; both purified

Binder	binding [1]	binding [2]	binding [3]	binding [4]
B1	no binding (tested: 100 nM SCAPER, 150 nM TTC5)	–	–	–
B2	–	no binding (tested: 100–250 nM)	no binding	no binding (condition: reactions lacking β-tubulin RNCs)
